Data taken from ChEMBL document CHEMBL3988442, “University of Dundee, Small-Polar-MMV Screening Library” (2021).

The chains behind the UniProt entries cited, without tags or fusion partners. Residues count along the entry.
UniProt Q8IDJ8, 1-583: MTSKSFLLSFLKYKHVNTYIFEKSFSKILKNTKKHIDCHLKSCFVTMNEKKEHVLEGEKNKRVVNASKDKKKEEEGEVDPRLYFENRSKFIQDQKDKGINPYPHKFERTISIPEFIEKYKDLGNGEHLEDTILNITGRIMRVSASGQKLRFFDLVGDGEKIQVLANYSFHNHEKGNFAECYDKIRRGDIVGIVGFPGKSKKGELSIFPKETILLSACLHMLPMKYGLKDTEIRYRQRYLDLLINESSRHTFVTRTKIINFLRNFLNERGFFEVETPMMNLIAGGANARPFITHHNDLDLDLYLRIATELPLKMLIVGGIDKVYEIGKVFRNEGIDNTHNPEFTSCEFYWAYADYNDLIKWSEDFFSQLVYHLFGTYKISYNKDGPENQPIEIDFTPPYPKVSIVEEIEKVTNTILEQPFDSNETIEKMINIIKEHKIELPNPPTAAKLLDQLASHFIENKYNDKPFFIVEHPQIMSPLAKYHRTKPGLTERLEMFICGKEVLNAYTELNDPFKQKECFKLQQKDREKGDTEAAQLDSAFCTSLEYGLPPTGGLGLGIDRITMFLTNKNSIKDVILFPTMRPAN
UniProt P9WFT3, whole entry: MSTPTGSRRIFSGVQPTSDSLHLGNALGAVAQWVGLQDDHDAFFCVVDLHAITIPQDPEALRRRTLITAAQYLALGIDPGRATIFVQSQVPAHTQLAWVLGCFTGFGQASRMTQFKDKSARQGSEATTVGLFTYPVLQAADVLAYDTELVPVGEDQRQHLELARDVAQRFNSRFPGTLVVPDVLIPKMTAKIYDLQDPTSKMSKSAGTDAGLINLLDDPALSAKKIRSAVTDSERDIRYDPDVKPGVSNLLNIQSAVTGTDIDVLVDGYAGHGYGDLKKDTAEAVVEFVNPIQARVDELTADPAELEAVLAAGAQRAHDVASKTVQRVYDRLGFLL

The filed quantity is “Percent Effect” (%).
How 0% and 100% were set is not recorded. Most values in the screen are low, and negative values occur.
This is an unselected part of the compounds tested.

PfKRS1: 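Enzyme assay of the cytosolic lysyl-tRNA synthetase in 384-well plates, read by luminescence. Target: Lysine-tRNA ligase, Plasmodium falciparum 3D7 (UniProt Q8IDJ8). Concentration: 30 µM. Higher reads as stronger inhibition, judged from the few compounds that gave an IC50. About 69,000 compounds were tested under these conditions; 0.071% (about 49) showed 50% or more at least once.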
MtTrpRS: 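Enzyme assay of tryptophanyl-tRNA synthetase; the read-out is not stated. Target: Tryptophan-tRNA ligase, Mycobacterium tuberculosis (UniProt P9WFT3). Tested at 10 µM. Direction is not recorded; retested compounds ran higher, which suggests that high means inhibition. Size under these conditions: about 65,000 compounds, about 64 of them at 50% or above in at least one test.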

With Cn1ccnc1CN1C(=O)CO[C@H]2CN(Cc3ccccc3O)C[C@H]21 the screen gave PfKRS1: 1.286%; MtTrpRS: -2.2%.
With O=C(c1cc(Cl)ccc1F)N1CCCC1Cn1cccn1 (configuration not stated) the screen gave PfKRS1: -0.6163%; MtTrpRS: 10.51%.
With Cc1cc(C(=O)NCc2ccccc2CN(C)Cc2ccco2)on1 the screen gave PfKRS1: -0.6156%; MtTrpRS: 3.263%.
With NC(=O)NC1CCN(Cc2ccccc2OCC(F)(F)F)CC1 the screen gave PfKRS1: 2.549%; MtTrpRS: -7.055%.
With O=C(CNc1cccc(CC(F)(F)F)c1)NCc1ccco1 the screen gave PfKRS1: 2.251%; MtTrpRS: -3.309%.
With CC(C)C(C)N(C)Cc1nnc(-c2ccc(Br)s2)o1 (configuration not stated) the screen gave PfKRS1: 3.628%; MtTrpRS: -2.29%.
With c1ccc(CN2CCc3ncnc(C4CCOC4)c3CC2)nc1 (configuration not stated) the screen gave PfKRS1: 2.299%; MtTrpRS: -5.669%.
With CCn1ncnc1CN1CCOC(Cc2cccc3ccccc23)C1 (configuration not stated) the screen gave PfKRS1: 0.9302%; MtTrpRS: -2.498%.
With CCc1ccc(C(=O)N2CCN(CCO)CC2)o1 the screen gave PfKRS1: 1.938%; MtTrpRS: -9.032%.
With CC1CCCN(Cc2c(C3CC3)[nH]c3ncccc23)C1 (configuration not stated) the screen gave PfKRS1: 1.272%.
With CC1=CC(C)(C)N(CN2C(=O)c3ccccc3C2=O)c2ccc(C)cc21 the screen gave PfKRS1: 0.8777%; MtTrpRS: 7.37%.
With NC(=O)COc1ccc(CNCc2ccc(Cl)c(F)c2)cc1 the screen gave PfKRS1: 5.342%; MtTrpRS: 1.146%.
With O=C(O)c1cnc(N2CC[C@H](N3CCOCC3)[C@H](CCCO)C2)c(Cl)c1 the screen gave PfKRS1: 3.243%; MtTrpRS: -7.534%.
With O=C(c1cnco1)N1CCC(Cc2cnc3ccccc3c2)CC1 the screen gave PfKRS1: 0.3422%; MtTrpRS: -1.24%.
With CN(C)c1ccc(CN(CCCn2ccnc2)Cc2c[nH]cn2)cc1 the screen gave PfKRS1: 4.042%; MtTrpRS: -0.9197%.
With Cc1c(C)n(CC(O)CN2CCC(O)CC2)c2c(Cl)cccc12 (configuration not stated) the screen gave PfKRS1: 5.759%; MtTrpRS: -4.022%.
With COCCN1CCC(NCc2cccc(F)c2)C1 (configuration not stated) the screen gave PfKRS1: -7.617%; MtTrpRS: -5.036%.
With Cc1ccc(OCC(O)CN(C)CC(=O)Nc2cc(C)on2)c(C)c1 (configuration not stated) the screen gave PfKRS1: -2.773%; MtTrpRS: 12.11%.
With COc1c(CNC2CCOc3c(F)cccc32)c(C)nn1C (configuration not stated) the screen gave PfKRS1: 0.1942%; MtTrpRS: -2.678%.
With Cc1cc(C)n(C2CCCN(C(=O)c3cccc(F)c3F)C2)n1 (configuration not stated) the screen gave PfKRS1: 2.417%; MtTrpRS: -6.133%.
With Cc1cn[nH]c1C1COCCN1Cc1cscn1 (configuration not stated) the screen gave PfKRS1: -0.3821%; MtTrpRS: -3.826%.
With O=C(Cc1cccs1)NCC1(O)CCSCC1 the screen gave PfKRS1: 2.863%; MtTrpRS: -4.631%.
With CCS(=O)(=O)N(C)c1ccc(C(=O)N2CCCC(C)C2)cc1 (configuration not stated) the screen gave PfKRS1: 0.01173%; MtTrpRS: -1.517%.
With COCCN(CCOC)C(=O)c1cn(C(C)(C)C)c2ncccc12 the screen gave PfKRS1: 5.365%.
With Cc1noc(CN2CC(=O)N(C)c3ccccc3C2=O)n1 the screen gave PfKRS1: 4.633%; MtTrpRS: 0.6369%.